For two molecules, binding results are on record in PMC9558048.

The target of test [1] is T1, MBP-Isc10 (full-length Isc10, 1-267) (S. cerevisiae) (UniProt P32645).
T1 sequence: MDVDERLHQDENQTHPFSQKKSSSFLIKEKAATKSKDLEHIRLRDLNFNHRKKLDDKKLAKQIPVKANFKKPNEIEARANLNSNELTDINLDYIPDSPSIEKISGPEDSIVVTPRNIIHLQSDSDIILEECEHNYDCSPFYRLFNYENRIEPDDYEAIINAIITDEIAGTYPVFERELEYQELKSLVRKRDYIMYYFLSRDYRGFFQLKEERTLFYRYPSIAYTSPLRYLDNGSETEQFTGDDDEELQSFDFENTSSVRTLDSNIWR
Nature of the test: pull-down; ICK kinase domain (1-300) coexpressed with MBP-Isc10 in bacteria; fraction bound to amylose beads analysed with an ICK antiserum.

The target in test [2] is T2, MBP-Isc10^111-267 (S. cerevisiae) (UniProt P32645).
T2 sequence: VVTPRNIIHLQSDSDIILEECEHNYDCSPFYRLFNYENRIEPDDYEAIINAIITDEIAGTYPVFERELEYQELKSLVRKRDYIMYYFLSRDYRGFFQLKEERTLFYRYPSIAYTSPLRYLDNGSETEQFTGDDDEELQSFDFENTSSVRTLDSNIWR
The test can be described thus: pull-down; amylose beads bound to MBP-Isc10^111-267 incubated with extracts from bacteria expressing ICK; beads washed, bound fraction analysed with an ICK antiserum; only the target purified.

Test [3] has as its target T3, Ssp2^KAD-T199A-GST (S. cerevisiae) (UniProt Q08646).
T3 sequence: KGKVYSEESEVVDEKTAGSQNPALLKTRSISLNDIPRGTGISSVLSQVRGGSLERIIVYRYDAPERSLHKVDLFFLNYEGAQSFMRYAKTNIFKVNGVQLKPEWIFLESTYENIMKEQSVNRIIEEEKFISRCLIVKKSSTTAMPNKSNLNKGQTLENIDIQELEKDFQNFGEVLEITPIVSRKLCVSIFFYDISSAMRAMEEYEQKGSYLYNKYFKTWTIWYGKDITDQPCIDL
Nature of the test: pull-down; Smk1-as1 coexpressed with Ssp2^KAD-GST (or its T199A form) and Cak1 in E. coli BL-21 DE3; complex purified from the extract on glutathione agarose beads, eluted with 20 mM reduced glutathione; kinase activity found in the eluate.

The target in test [4] is T4, Ssp2^KAD-GST (Ssp2 residues 137-371 fused to glutathione-S-transferase) (S. cerevisiae) (UniProt Q08646).
T4 sequence: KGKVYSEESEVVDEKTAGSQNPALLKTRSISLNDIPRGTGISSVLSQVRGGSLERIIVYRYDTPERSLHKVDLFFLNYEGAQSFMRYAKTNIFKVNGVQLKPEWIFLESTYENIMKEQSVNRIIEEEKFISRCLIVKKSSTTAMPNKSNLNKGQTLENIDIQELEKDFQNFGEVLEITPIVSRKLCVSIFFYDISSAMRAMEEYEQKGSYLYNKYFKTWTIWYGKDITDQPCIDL
Described as above.

These are yes or no findings as the source states them, for the method shown. Binding seen in cells or lysates may run through a third protein. Some entries that bind do so weakly or less than the wild type. Sequences can lack the tags named with a protein.

B1: kinase domain of intestinal cell kinase ICK (residues 1-300) (domain or fragment, UniProt Q9UPZ9 1-300)
chain: MNRYTTIRQLGDGTYGSVLLGRSIESGELIAIKKMKRKFYSWEECMNLREVKSLKKLNHANVVKLKEVIRENDHLYFIFEYMKENLYQLIKERNKLFPESAIRNIMYQILQGLAFIHKHGFFHRDLKPENLLCMGPELVKIADFGLAREIRSKPPYTDYVSTRWYRAPEVLLRSTNYSSPIDVWAVGCIMAEVYTLRPLFPGASEIDTIFKICQVLGTPKKTDWPEGYQLSSAMNFRWPQCVPNNLKTLIPNASSEAVQLLRDMLQWDPKKRPTASQALRYPYFQVGHPLGSTTQNLQDS
As to B1, the binding result in test [1] and in test [2] was “binds” throughout.

B2: Smk1-as1 (Smk1 Q121A, analog-sensitive) (enzyme, UniProt P41808 1-388)
chain: MNCTLTDNTRAINVASNLGAPQQRTIFAKERISIPGYYEIIQFLGKGAYGTVCSVKFKGRSPAARIAVKKISNIFNKEILLKRAIRELKFMNFFKGHKNIVNLIDLEIVTSSPYDGLYCYAELIDYDLAKVIHSSVQLSEFHIKYFLYQILCGLKYIHSADVIHRDLKPGNILCTLNGCLKICDFGLARGIHAGFFKCHSTVQPHITNYVATRWYRAPELLLSNQPYSKSVDIWAVGCILAEFYARKPVFMGRDSMHQIFEIIKVLGTPDKDILIKFGTIKAWNLGKNSNNPVYKKIPWSNIFPFASHEAINLIESLLHWDSTHRLNVEQAISHPFLNEVRKPDDEPVCLQGPFDFTYESELNSMSKLRDYLVEEVKNFKTDLSSSSL
On to B2, for which the binding result in test [3] and in test [4] was “binds” in each case.
